Measurements reported in patent publication US20220195049A1 (Scripps Research, published 2022).
These are yes or no findings as the source states them, for the method shown. Some entries that bind do so weakly or less than the wild type.

The chains behind the UniProt entries cited, without tags or fusion partners. Residues count along the entry.
UniProt Q9NZQ7, residues 19-239: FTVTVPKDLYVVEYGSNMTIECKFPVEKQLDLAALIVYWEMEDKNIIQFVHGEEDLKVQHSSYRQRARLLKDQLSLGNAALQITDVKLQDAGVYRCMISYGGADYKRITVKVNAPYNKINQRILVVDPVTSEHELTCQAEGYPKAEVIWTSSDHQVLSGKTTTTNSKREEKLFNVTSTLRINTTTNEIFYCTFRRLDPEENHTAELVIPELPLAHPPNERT

B1: KL001-01 (antibody, V domains shown)
VH: QVQLVESGAEVKKPGSSVKVSCKASGGTFSSYAISWVRQAPGQGLEWMGRIIPILGIANYAQKFQGRVTVTADKSTSTAYMELSSLRSEDTAVYYCAQSGYGYAYGSFDYWGQGTLVTVSS
VL: QLVLTQPPSVSGAPGQTVTISCTGPTIGAGYDVHWYQQLPGAAPKLLIYGNLNRPSGVPDRFSGSKSGTSASLAITDLQAEDEADYYCQSYDRTLGVVFGGGTKLTVL
B2: KL001-16 (antibody, V domains shown)
VH: QVQLVESGAEVKKPGSSVKVSCKASGGTFSSYAISWVRQAPGQGLEWMGRIIPILGIANYAQKFQGRVTVTADKSTSTAYMELSSLRSEDTAVYYCARSGYGYAYGSFDYWGQGTLVTVSS
VL: QLVLTQPPSVSGAPGQTVTISCTGPTIGAGYDVHWYQQLPGAAPKLLIYGNLNRPSGVPDRFSGSKSGTSASLAITDLQAEDEADYYCQSYDSRLGVVFGGGTKLTVL
B3: KL001-06 (antibody, V domains shown)
VH: QVQLVESGAEVKKPGSSVKVSCKASGGTFSSYAISWVRQAPGQGLEWMGRIIPILGIANYAQKFQGRVTVTADKSTSTAYMELSSLRSEDTAVYYCARSGYGYAYGSFDVWGQGTLVTVSS
VL: QLVLTQPPSVSGAPGQTVTISCTGPTIGAGYDVHWYQQLPGAAPKLLIYGNLNRPSGVPDRFSGSKSGTSASLAITDLQAEDEADYYCQSYDSRLGVVFGGGTKLTVL
B4: KL001-02 (antibody, V domains shown)
VH: QVQLVESGAEVKKPGSSVKVSCKASGGTFSSYAISWVRQAPGQGLEWMGRIIPILGIANYAQKFQGRVTVTADKSTSTAYMELSSLRSEDTAVYYCARSGHGYAYGSFDYWGQGTLVTVSS
VL: QLVLTQPPSVSGAPGQTVTISCTGPTIGQGYDVHWYQQLPGAAPKLLIYGNLNRPSGVPDRFSGSKSGTSASLAITDLQAEDEADYYCQSYDSRLGVVFGGGTKLTVL
B5: KL001-19 (antibody, V domains shown)
VH: QVQLVESGAEVKKPGSSVKVSCKASGGTFSSYAISWVRQAPGQGLEWMGRIIPILGIANYAQKFQGRVTVTADKSTSTAYMELSSLRSEDTAVYYCARSGYGYAYGSFDYWGQGTLVTVSS
VL: QLVLTQPPSVSGAPGQTVTISCTGPTIGAGYDVHWYQQLPGAAPKLLIYGNLNRPSGVPDRFSGSKSGTSASLAITDLQAEDEADYYCQSYDSTVGVVFGGGTKLTVL
B6: KL001-21 (antibody, V domains shown)
VH: QVQLVESGAEVKKPGSSVKVSCKASGGTFSSYAISWVRQAPGQGLEWMGRIIPVLGIANYAQKFQGRVTVTADKSTSTAYMELSSLRSEDTAVYYCARSGYGYAYGSFDYWGQGTLVTVSS
VL: QLVLTQPPSVSGAPGQTVTISCTGPTIGAGYDVHWYQQLPGAAPKLLIYGNLNRPSGVPDRFSGSKSGTSASLAITDLQAEDEADYYCQAYDSTLGVVFGGGTKLTVL
B7: KL001-09 (antibody, V domains shown)
VH: QVQLVESGAEVKKPGSSVKVSCKASGGTFSSYAISWVRQAPGQGLEWMGRIIPILQIANYAQKFQGRVTVTADKSTSTAYMELSSLRSEDTAVYYCARSGYGYAYGSFDYWGQGTLVTVSS
VL: QLVLTQPPSVSGAPGQTVTISCTGPPIGAGYDVHWYQQLPGAAPKLLIYGNLNRPSGVPDRFSGSKSGTSASLAITDLQAEDEADYYCQSYDSTPGVVFGGGTKLTVL
B8: KL001-11 (antibody, V domains shown)
VH: QVQLVESGAEVKKPGSSVKVSCKASGGTFSSYAISWVRQAPGQGLEWMGRIIPILGIANYAQKFQGRVTVTADKSTSTAYMELSSLRSEDTAVYYCARSGYGYAYGSFDYWGQGTLVTVSS
VL: QLVLTQPPSVSGAPGQTVTISCTGPTIGAGYDVHWYQQLPGAAPKLLIYGNLNRPSGVPDRFSGSKSGTSASLAITDLQAEDEADYYCQSYDRTLGVVFGGGTKLTVL
B9: KL001-23 (antibody, V domains shown)
VH: QVQLVESGAEVKKPGSSVKVSCKASGGTFSSYAISWVRQAPGQGLEWMGRIIPILGIANYAQKFQGRVTVTADKSTSTAYMELSSLRSEDTAVYYCARSGYGYAYGVFDHWGQGTLVTVSS
VL: QLVLTQPPSVSGAPGQTVTISCTGPTIGAGYDVHWYQQLPGAAPKLLIYGNLNRPSGVPDRFSGSKSGTSASLAITDLQAEDEADYYCQSYDSRLGVVFGGGTKLTVL
B10: KL001-15 (antibody, V domains shown)
VH: QVQLVESGAEVKKPGSSVKVSCKASGGTFSSYAISWVRQAPGQGLEWMGRIIPILGIANYAQKFQGRVTVTADKSTSTAYMELSSLRSEDTAVYYCARSGYGYAYGSFDYWGQGTLVTVSS
VL: QLVLTQPPSVSGAPGQTVTISCTGPTIQAGYDVHWYQQLPGAAPKLLIYGNLNRPSGVPDRFSGSKSGTSASLAITDLQAEDEADYYCQSYDSRLGVVFGGGTKLTVL
B11: KL001-07 (antibody, V domains shown)
VH: QVQLVESGAEVKKPGSSVKVSCKASGGTFSSYAISWVRQAPGQGLEWMGRQIPILGIANYAQKFQGRVTVTADKSTSTAYMELSSLRSEDTAVYYCARSGYGYAYGSFDYWGQGTLVTVSS
VL: QLVLTQPPSVSGAPGQTVTISCTGPTIGAGYDVHWYQQLPGAAPKLLIYGNLNRPSGVPDRFSGSKSGTSASLAITDLQAEDEADYYCQSYDSRLGVVFGGGTKLTVL
B12: KL001-24 (antibody, V domains shown)
VH: QVQLVESGAEVKKPGSSVKVSCKASGGTFSSYAISWVRQAPGQGLEWMGRIIPILGQANYAQKFQGRVTVTADKSTSTAYMELSSLRSEDTAVYYCARSGYGYAYGSFDYWGQGTLVTVSS
VL: QLVLTQPPSVSGAPGQTVTISCTGPTIGAGFDVHWYQQLPGAAPKLLIYGNLNRPSGVPDRFSGSKSGTSASLAITDLQAEDEADYYCQSYDSRLGVVFGGGTKLTVL
B13: KL001-22 (antibody, V domains shown)
VH: QVQLVESGAEVKKPGSSVKVSCKASGGTFSSYAISWVRQAPGQGLEWMGRISPILGIANYAQKFQGRVTVTADKSTSTAYMELSSLRSEDTAVYYCARSGYGYAYGSFDYWGQGTLVTVSS
VL: QLVLTQPPSVSGAPGQTVTISCTGPTIGAGYDVHWYQQLPGAAPKLLIYGNLNRPSGVPDRFSGSKSGTSASLAITDLQAEDEADYYCQSYDSTLGVVFGGGTKLTVL
B14: KL001-20 (antibody, V domains shown)
VH: QVQLVESGAEVKKPGSSVKVSCKASGGTFSSYAISWVRQAPGQGLEWMGRIIPIMGIANYAQKFQGRVTVTADKSTSTAYMELSSLRSEDTAVYYCARSGYGYAYGSFDYWGQGTLVTVSS
VL: QLVLTQPPSVSGAPGQTVTISCTGPTIGAGYDVHWYQQLPGAAPKLLIYGNLNRPSGVPDRFSGSKSGTSASLAITDLQAEDEADYYCQSYDSTLGVVFGGGTKLTVL
B15: KL001-14 (antibody, V domains shown)
VH: QVQLVESGAEVKKPGSSVKVSCKASGGTFSSYAISWVRQAPGQGLEWMGRIIPILGIANYAQKFQGRVTVTADKSTSTAYMELSSLRSEDTAVYYCARSGYGYAYQSFDYWGQGTLVTVSS
VL: QLVLTQPPSVSGAPGQTVTISCTGPQIGAGYDVHWYQQLPGAAPKLLIYGNLNRPSGVPDRFSGSKSGTSASLAITDLQAEDEADYYCQSYDSRLGVVFGGGTKLTVL
B16: KL001-04 (antibody, V domains shown)
VH: QVQLVESGAEVKKPGSSVKVSCKASGGTFSSYAISWVRQAPGQGLEWMGRIIPILGIANYAQKFQGRVTVTADKSTSTAYMELSSLRSEDTAVYYCARSGYGYAYGSFAAWGQGTLVTVSS
VL: QLVLTQPPSVSGAPGQTVTISCTGPTIGAGYDVHWYQQLPGAAPKLLIYGNLNRPSGVPDRFSGSKSGTSASLAITDLQAEDEADYYCQSYDSTLGVVFGGGTKLTVL
B17: KL001-08 (antibody, V domains shown)
VH: QVQLVESGAEVKKPGSSVKVSCKASGGTFSGYAISWVRQAPGQGLEWMGRIIPALGIANYAQKFQGRVTVTADKSTSTAYMELSSLRSEDTAVYYCARSGYGYAYGSFDYWGQGTLVTVSS
VL: QLVLTQPPSVSGAPGQTVTISCTGPTIGAGYDVHWYQQLPGAAPKLLIYGNLNRPSGVPDRFSGSKSGTSASLAITDLQAEDEADYYCQSYDSTHGVVFGGGTKLTVL
notes: In the Biacore assay it was captured by anti-human IgG (Fc), so it carried a human Fc there; also called KL001-8
B18: KL001-12 (antibody, V domains shown)
VH: QVQLVESGAEVKKPGSSVKVSCKASGGTFSSYAISWVRQAPGQGLEWMGRIIPILGIANYAQKFQGRVTVTADKSTSTAYMELSSLRSEDTAVYYCARSGYGYAYGSFDYWGQGTLVTVSS
VL: QLVLTQPPSVSGAPGQTVTISCTGPTIGAGYDVHWYQQLPGAAPKLLIYGNLNRPSGVPDRFSGSKSGTSASLAITDLQAEDEADYYCQSYDSALGVVFGGGTKLTVL
B19: KL001-17 (antibody, V domains shown)
VH: QVQLVESGAEVKKPGSSVKVSCKASGGTFSSYAISWVRQAPGQGLEWMGRIIPILGIANYAQKFQGRVTVTADKSTSTAYMELSSLRSEDTAVYYCARSGYGYAYGSFDYWGQGTLVTVSS
VL: QLVLTQPPSVSGAPGQTVTISCTGPVIGAGYDVHWYQQLPGAAPKLLIYGNLNRPSGVPDRFSGSKSGTSASLAITDLQAEDEADYYCQSYDSRLGVVFGGGTKLTVL
B20: KL001-10 (antibody, V domains shown)
VH: QVQLVESGAEVKKPGSSVKVSCKASGGTFSSYAISWVRQAPGQGLEWMGRIIPILGIANYAQKFQGRVTVTADKSTSTAYMELSSLRSEDTAVYYCARSGYGYAYGSFDYWGQGTLVTVSS
VL: QLVLTQPPSVSGAPGQTVTISCTGPTIGAGYDVHWYQQLPGAAPKLLIYGNLNRPSGVPDRFSGSKSGTSASLAITDLQAEDEADYYCQSYDQTLGVVFGGGTKLTVL
B21: KL001-18 (antibody, V domains shown)
VH: QVQLVESGAEVKKPGSSVKVSCKASGGTFSSYAISWVRQAPGQGLEWMGRIIPILGIANYAQKFQGRVTVTADKSTSTAYMELSSLRSEDTAVYYCARSGYGYAYGSFDYWGQGTLVTVSS
VL: QLVLTQPPSVSGAPGQTVTISCTGQTIGAGYDVHWYQQLPGAAPKLLIYGNLNRPSGVPDRFSGSKSGTSASLAITDLQAEDEADYYCQSYDSTEGVVFGGGTKLTVL

target: PD-L1-Fc (PD-L1 antigen protein, extracellular region Met1-Thr239 fused to human Fc) (human) (UniProt Q9NZQ7); assay: competitive ELISA on a PD-L1-coated plate, about 4 more hours in a solution of PD-L1 antigen protein

binding, binds:
B1
B2
B3
B4
B5
B6
B7
B8
B9
B10
B11
B12
B13
B14
B15
B16
B17
B18
B19
B20
B21
